The values below come from PubChem BioAssay AID1794747 (DTP/NCI, 2022).

This experiment relates to SNB-78. In words: NCI-60 one-dose screen, 48 h (100 = growth as untreated, 0 = no growth, -100 = all killed). The conditions noted are these: 2.5 mM. How it is done: Growth inhibition of the SNB-78 human tumor cell line is measured as a screen for anti-cancer activity. Cells are grown in 96 well plates and exposed to the test compound for 48 hours. Compounds are tested at a single concentration, which is 10^-5 M for most compounds. The reported endpoint is percent growth (GI% or GIPRCNT), where numbers from 0 - 100% represent growth inhibition, and numbers from -100% - 0 represent cell death. For example, a value of 40 represents 60% growth inhibition. A value of 0 means no net growth occurred over the course of the experiment. A value of -40 indicates 40% of cells at the beginning of the experiment died by the end of the experiment. A value of -100 means all cells are dead at the end of the experiment.
NCI-60 Human Tumor Cell Lines Screen was performed using the standard one-dose NCI protocol, which is described in more detail at https://dtp.cancer.gov/discovery_development/nci-60/default.htm.
Compounds with GIPRCNT values below 10 were considered active. Activity score was based on GIPRCNT using the following formula: […]
Score is 0 for GIPRCNT values of 100 or above, 50 for GIPRCNT values of 0, and 100 for GIPRCNT values of -100.

“And” between values parts separate entries of the source, which are not always exact repeats. Equal entries are not always repeated. The source gives many values for each of these; only a part stands here.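 Values shown are percent growth following 48 h exposure of cells in 96-well plates to a single concentration of compound; below 10 was considered active.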

`O=c1[nH]cc(F)c(=O)[nH]1`: the growth was 48.3% and 35.2%.
